Experimental data as given in PMC8626881.
These are yes or no findings as the source states them, for the method shown. In cells and extracts the contact can be indirect. Some results given as binding are weak or reduced against the parent protein; the word gives no strength.

Amino acid sequences for entries named in this document (tags omitted).
UniProt P47811: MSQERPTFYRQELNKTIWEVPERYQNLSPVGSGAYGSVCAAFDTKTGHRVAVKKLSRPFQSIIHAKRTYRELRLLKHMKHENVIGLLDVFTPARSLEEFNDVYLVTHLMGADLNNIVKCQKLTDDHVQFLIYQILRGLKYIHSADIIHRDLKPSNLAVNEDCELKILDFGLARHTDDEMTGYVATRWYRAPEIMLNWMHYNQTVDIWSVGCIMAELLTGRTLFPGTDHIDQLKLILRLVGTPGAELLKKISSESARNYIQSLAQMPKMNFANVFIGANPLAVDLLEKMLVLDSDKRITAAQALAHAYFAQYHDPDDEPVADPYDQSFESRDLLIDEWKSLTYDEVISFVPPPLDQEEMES

Target: p38α (mouse (endogenous in BMDCs)) (UniProt P47811)
Assay: co-IP; DCs treated with OVA@DDAB/PLGA Nv or blank group, lysed in 50 mM Tris pH 8.0, 150 mM NaCl, 0.25% NP-40, 1 mM DTT, protease inhibitors; immunoprecipitated with anti-p38α or control IgG; Western blot with anti-MKK3

binding: binds
B1: mitogen-activated protein kinase 3 (MKK3) (enzyme, UniProt O09110 1-347)
chain: MESPAASPPASLPQTKGKSKRKKDLRISCVSKPPVSNPTPPRNLDSRTFITIGDRNFEVEADDLVTISELGRGAYGVVEKVRHAQSGTIMAVKRIRATVNTQEQKRLLMDLDINMRTVDCFYTVTFYGALFREGDVWICMELMDTSLDKFYRKVLEKNMKIPEDILGEIAVSIVRALEHLHSKLSVIHRDVKPSNVLINKEGHVKMCDFGISGYLVDSVAKTMDAGCKPYMAPERINPELNQKGYNVKSDVWSLGITMIEMAILRFPYESWGTPFQQLKQVVEEPSPQLPADQFSPEFVDFTSQCLRKNPAERMSYLELMEHPFFTLHKTKKTDIAAFVKEILGEDS
